PubChem BioAssay AID1259405 – NCATS | 2018
Purpose: 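Silenced genes that increase secreted GFP made by CHO cells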 (primary screen). System: Chinese hamster CHO-K1 ovary cells with stable secreted eGFP expression. Reagents: single siRNA against mouse genes, 0.8 pmol siRNA per well (2 µl of 400 nM stock). Time to read-out: 3 days. Read-out: 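Percent of the per-plate non-targeting control median for intracellular GFP per well by laser scanning cytometry and for cell viability by ATP luminescence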. Scale: GFP, % of control: higher = more GFP per well, higher productivity; viability (ATP), % of control: higher = more viable cells (more ATP). Call rule: 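a knock-down is called active if GFP reaches 120% or more of non-targeting control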.
This is a random part of about 50,000 deposited reagents. Of all reagents, about 4,000 (8%) are marked active. 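Mouse siRNA library applied to hamster cells; one well for each siRNA.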 The numbers tell different reagents against one gene apart.

| gene knocked down | reagent | GFP, % of control | viability (ATP), % of control | Call |
| --- | --- | --- | --- | --- |
| Traf5 (GeneID 22033) | 1 | 60.3 | 46.1 | inactive |
| Traf5 (GeneID 22033) | 2 | 59.9 | 84.8 | inactive |
| Traf5 (GeneID 22033) | 3 | 65.9 | 68.5 | inactive |
| Hirip3 (GeneID 233876) | 1 | 102 | 61.6 | inactive |
| Hirip3 (GeneID 233876) | 2 | 98 | 69 | inactive |
| Hirip3 (GeneID 233876) | 3 | 146 | 132 | active |
| Apba3 (GeneID 57267) | 1 | 90.5 | 96.8 | inactive |
| Apba3 (GeneID 57267) | 2 | 63.6 | 76.4 | inactive |
| Clec4n (GeneID 56620) | 1 | 80.6 | 54.8 | inactive |
| Clec4n (GeneID 56620) | 2 | 88.8 | 41.1 | inactive |
| Clec4n (GeneID 56620) | 3 | 69.4 | 59.2 | inactive |
| Ppp2r2b (GeneID 72930) | 1 | 105 | 103 | inactive |
| Ppp2r2b (GeneID 72930) | 2 | 54.1 | 63.7 | inactive |
| Ppp2r2b (GeneID 72930) | 3 | 89 | 96.1 | inactive |
| Derl2 (GeneID 116891) | 1 | 59.2 | 47 | inactive |
| Derl2 (GeneID 116891) | 2 | 68.4 | 69.6 | inactive |
| Derl2 (GeneID 116891) | 3 | 87.8 | 83.9 | inactive |
| Rhod (GeneID 11854) | 1 | 61.1 | 70.5 | inactive |
| Rhod (GeneID 11854) | 2 | 45.1 | 55.7 | inactive |
| Rhod (GeneID 11854) | 3 | 81.9 | 102 | inactive |
| Rpsa (GeneID 16785) | 1 | 45.3 | 73.4 | inactive |
| Rpsa (GeneID 16785) | 2 | 31.8 | 38.4 | inactive |
| Rpsa (GeneID 16785) | 3 | 104 | 104 | inactive |
| Calm4 (GeneID 80796) | 1 | 88.8 | 102 | inactive |
| Calm4 (GeneID 80796) | 2 | 69.8 | 70.8 | inactive |
| Bnipl (GeneID 171388) | 1 | 35.7 | 58 | inactive |
| Bnipl (GeneID 171388) | 2 | 64.1 | 66 | inactive |
| Bnipl (GeneID 171388) | 3 | 185 | 148 | active |
| Hnf4g (GeneID 30942) | 1 | 51.7 | 53.5 | inactive |
| Hnf4g (GeneID 30942) | 2 | 59.7 | 46.7 | inactive |
| Efcab7 (GeneID 230500) | 1 | 53.1 | 33.2 | inactive |
| Efcab7 (GeneID 230500) | 2 | 70.9 | 87.9 | inactive |
| Efcab7 (GeneID 230500) | 3 | 111 | 102 | inactive |
| Emb (GeneID 13723) | 1 | 109 | 60.1 | inactive |
| Emb (GeneID 13723) | 2 | 61.1 | 86.2 | inactive |
| Emb (GeneID 13723) | 3 | 94.7 | 99.8 | inactive |

A stretch of the results above:
| gene knocked down | reagent | GFP, % of control | viability (ATP), % of control | Call |
| --- | --- | --- | --- | --- |
| Bnipl (GeneID 171388) | 1 | 35.7 | 58 | inactive |
| Bnipl (GeneID 171388) | 2 | 64.1 | 66 | inactive |
| Bnipl (GeneID 171388) | 3 | 185 | 148 | active |
| Hnf4g (GeneID 30942) | 1 | 51.7 | 53.5 | inactive |
| Hnf4g (GeneID 30942) | 2 | 59.7 | 46.7 | inactive |

Additional records follow.
| gene knocked down | reagent | GFP, % of control | viability (ATP), % of control | Call |
| --- | --- | --- | --- | --- |
| Pramel48 (GeneID 320549) | 1 | 56.7 | 63.6 | inactive |
| Pramel48 (GeneID 320549) | 2 | 71.9 | 35.4 | inactive |
| Pramel48 (GeneID 320549) | 3 | 101 | 87.7 | inactive |
| Ccdc59 (GeneID 52713) | 1 | 89.7 | 102 | inactive |
| Ccdc59 (GeneID 52713) | 2 | 101 | 63.9 | inactive |
| Ccdc59 (GeneID 52713) | 3 | 118 | 87.5 | inactive |
| Arhgap12 (GeneID 75415) | 1 | 125 | 64.5 | active |
| Arhgap12 (GeneID 75415) | 2 | 50.5 | 118 | inactive |
| Arhgap12 (GeneID 75415) | 3 | 93.7 | 108 | inactive |
| Olfm4 (GeneID 380924) | 1 | 38.3 | 54.2 | inactive |
| Olfm4 (GeneID 380924) | 2 | 57 | 82.8 | inactive |
| Olfm4 (GeneID 380924) | 3 | 37.5 | 33.4 | inactive |
| Slc39a1 (GeneID 30791) | 1 | 63.4 | 51.6 | inactive |
| Slc39a1 (GeneID 30791) | 2 | 148 | 82 | active |
| Slc39a1 (GeneID 30791) | 3 | 137 | 104 | active |
| Zfp809 (GeneID 235047) | 1 | 56.8 | 39.2 | inactive |
| Zfp809 (GeneID 235047) | 2 | 64.5 | 58.5 | inactive |
| Zfp809 (GeneID 235047) | 3 | 98.9 | 88.4 | inactive |
| Gdf2 (GeneID 12165) | 1 | 53.6 | 58.1 | inactive |
| Gdf2 (GeneID 12165) | 2 | 35.3 | 46.5 | inactive |
| Gdf2 (GeneID 12165) | 3 | 35.8 | 59.2 | inactive |
